Measured values published in patent publication US9611249B2, “1H-indazole-3-carboxamide compounds as glycogen synthase kinase 3 beta inhibitors” (AZIENDE CHIMICHE RIUNITE ANGELINI FRANCESCO A.C.R.A.F. …, priority 2012, dated 2017).
For at least one compound, name, drawing or mass did not settle the structure.

By UniProt entry, the sequences of proteins in these tests, tags left out. Where a name states a change or a piece, a line headed by the entry shows the natural chain unless it says otherwise.
UniProt P49841: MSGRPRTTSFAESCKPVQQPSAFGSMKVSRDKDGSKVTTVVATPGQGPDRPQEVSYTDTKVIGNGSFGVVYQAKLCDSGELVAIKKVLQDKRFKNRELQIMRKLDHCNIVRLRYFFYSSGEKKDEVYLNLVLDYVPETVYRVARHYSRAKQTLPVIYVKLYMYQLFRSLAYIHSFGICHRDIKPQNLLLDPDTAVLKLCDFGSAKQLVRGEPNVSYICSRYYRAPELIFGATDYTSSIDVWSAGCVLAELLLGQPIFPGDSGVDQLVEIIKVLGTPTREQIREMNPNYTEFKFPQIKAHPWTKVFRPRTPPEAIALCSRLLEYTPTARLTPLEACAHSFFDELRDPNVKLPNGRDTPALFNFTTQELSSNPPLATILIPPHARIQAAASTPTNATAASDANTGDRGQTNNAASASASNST

Legend:
[1] = test system: AMPKalpha; test: Kinase selectivity panel: AMPKalpha; assay type: biochemical, human; conditions: 10 μM in duplicate
Description: (§1) (a) Compounds 1 and 2 were tested against a panel of 60 kinases in order to assess their selectivity. The assays were chosen taking into consideration the diversity of assay families.
(§2) Tested kinases were representative of following kinase sub-families: • protein-serine/threonine kinases; • protein-tyrosine kinases; • other kinases; and • atypical kinases.
(§3) Human recombinant kinases were incubated in the presence of specific peptide substrates plus ATP for different times (10, 15, 30, 60 or 90 minutes) at 22° C. Phosphorylated substrate was detected by LANCE or HTRF technology (CISBIO, MA, USA). The compounds were tested at 10 μM in duplicate.
(§4) The results are expressed as a percentage of inhibition of control specific activity obtained in the presence of the test compounds and are reported in the following Table 5.
(b) Compounds 3, 8, 29 and 31 were tested against the same panel of 60 kinases under the same conditions described above for compounds 1 and 2.
(§5) The results are expressed as a percent of inhibition of control specific activity obtained in the presence of the test compounds and are reported in the following Table 6.

[2] = target: GSK3beta (h) (Homo sapiens (Human), UniProt P49841); test: Kinase selectivity panel: GSK3beta (h); assay type: biochemical; conditions: panel of 60 kinases, 10 μM; conclusion in words
Description: as §1, §2, §3, §4, §5

COc1ccc2[nH]nc(C(=O)NCC3CCN(CCC(=O)O)CC3)c2c1 [Compound 3]
% inhibition of control values [1]: 5% | selectivity for GSK-3β compared to the other kinases of the panel [2]: good selectivity profile
